Consider 21 molecules from paper PMC7948961, “Proteomic identification and validation of novel interactions of the putative tumor suppressor PRELP with membrane proteins including IGFI-R and p75NTR” (The Journal of Biological Chemistry, 2021).

Sequences of proteins named here, by UniProt entry; tags and fusion partners are left off. Residues count along the entry.
UniProt Q14126, residues 50-1118: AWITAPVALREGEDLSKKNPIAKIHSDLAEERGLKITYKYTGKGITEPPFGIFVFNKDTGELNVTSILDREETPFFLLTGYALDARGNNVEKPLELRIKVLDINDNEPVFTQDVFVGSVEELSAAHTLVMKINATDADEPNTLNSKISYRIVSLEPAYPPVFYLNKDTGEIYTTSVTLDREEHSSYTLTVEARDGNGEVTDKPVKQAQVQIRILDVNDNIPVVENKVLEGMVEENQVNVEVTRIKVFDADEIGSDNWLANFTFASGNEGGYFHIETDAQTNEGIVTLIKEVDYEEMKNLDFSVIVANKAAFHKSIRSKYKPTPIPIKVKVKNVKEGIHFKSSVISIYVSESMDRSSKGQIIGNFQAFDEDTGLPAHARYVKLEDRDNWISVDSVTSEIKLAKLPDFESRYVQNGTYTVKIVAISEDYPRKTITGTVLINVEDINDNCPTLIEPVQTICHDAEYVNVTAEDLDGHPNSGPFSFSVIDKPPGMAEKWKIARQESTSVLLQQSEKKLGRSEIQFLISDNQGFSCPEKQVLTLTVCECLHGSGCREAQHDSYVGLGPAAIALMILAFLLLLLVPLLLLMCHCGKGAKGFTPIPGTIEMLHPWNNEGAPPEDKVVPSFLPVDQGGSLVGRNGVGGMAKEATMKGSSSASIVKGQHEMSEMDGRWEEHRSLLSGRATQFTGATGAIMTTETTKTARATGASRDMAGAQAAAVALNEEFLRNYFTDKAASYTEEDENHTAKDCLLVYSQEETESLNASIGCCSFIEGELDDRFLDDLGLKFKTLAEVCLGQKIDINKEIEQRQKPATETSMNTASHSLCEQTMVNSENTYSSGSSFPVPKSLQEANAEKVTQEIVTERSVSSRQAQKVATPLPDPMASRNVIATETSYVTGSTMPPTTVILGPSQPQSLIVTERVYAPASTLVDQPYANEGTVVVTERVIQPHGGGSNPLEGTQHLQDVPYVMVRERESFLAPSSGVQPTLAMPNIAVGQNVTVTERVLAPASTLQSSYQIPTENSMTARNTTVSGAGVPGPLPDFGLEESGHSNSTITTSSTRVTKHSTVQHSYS
UniProt Q07954, residues 20-4544: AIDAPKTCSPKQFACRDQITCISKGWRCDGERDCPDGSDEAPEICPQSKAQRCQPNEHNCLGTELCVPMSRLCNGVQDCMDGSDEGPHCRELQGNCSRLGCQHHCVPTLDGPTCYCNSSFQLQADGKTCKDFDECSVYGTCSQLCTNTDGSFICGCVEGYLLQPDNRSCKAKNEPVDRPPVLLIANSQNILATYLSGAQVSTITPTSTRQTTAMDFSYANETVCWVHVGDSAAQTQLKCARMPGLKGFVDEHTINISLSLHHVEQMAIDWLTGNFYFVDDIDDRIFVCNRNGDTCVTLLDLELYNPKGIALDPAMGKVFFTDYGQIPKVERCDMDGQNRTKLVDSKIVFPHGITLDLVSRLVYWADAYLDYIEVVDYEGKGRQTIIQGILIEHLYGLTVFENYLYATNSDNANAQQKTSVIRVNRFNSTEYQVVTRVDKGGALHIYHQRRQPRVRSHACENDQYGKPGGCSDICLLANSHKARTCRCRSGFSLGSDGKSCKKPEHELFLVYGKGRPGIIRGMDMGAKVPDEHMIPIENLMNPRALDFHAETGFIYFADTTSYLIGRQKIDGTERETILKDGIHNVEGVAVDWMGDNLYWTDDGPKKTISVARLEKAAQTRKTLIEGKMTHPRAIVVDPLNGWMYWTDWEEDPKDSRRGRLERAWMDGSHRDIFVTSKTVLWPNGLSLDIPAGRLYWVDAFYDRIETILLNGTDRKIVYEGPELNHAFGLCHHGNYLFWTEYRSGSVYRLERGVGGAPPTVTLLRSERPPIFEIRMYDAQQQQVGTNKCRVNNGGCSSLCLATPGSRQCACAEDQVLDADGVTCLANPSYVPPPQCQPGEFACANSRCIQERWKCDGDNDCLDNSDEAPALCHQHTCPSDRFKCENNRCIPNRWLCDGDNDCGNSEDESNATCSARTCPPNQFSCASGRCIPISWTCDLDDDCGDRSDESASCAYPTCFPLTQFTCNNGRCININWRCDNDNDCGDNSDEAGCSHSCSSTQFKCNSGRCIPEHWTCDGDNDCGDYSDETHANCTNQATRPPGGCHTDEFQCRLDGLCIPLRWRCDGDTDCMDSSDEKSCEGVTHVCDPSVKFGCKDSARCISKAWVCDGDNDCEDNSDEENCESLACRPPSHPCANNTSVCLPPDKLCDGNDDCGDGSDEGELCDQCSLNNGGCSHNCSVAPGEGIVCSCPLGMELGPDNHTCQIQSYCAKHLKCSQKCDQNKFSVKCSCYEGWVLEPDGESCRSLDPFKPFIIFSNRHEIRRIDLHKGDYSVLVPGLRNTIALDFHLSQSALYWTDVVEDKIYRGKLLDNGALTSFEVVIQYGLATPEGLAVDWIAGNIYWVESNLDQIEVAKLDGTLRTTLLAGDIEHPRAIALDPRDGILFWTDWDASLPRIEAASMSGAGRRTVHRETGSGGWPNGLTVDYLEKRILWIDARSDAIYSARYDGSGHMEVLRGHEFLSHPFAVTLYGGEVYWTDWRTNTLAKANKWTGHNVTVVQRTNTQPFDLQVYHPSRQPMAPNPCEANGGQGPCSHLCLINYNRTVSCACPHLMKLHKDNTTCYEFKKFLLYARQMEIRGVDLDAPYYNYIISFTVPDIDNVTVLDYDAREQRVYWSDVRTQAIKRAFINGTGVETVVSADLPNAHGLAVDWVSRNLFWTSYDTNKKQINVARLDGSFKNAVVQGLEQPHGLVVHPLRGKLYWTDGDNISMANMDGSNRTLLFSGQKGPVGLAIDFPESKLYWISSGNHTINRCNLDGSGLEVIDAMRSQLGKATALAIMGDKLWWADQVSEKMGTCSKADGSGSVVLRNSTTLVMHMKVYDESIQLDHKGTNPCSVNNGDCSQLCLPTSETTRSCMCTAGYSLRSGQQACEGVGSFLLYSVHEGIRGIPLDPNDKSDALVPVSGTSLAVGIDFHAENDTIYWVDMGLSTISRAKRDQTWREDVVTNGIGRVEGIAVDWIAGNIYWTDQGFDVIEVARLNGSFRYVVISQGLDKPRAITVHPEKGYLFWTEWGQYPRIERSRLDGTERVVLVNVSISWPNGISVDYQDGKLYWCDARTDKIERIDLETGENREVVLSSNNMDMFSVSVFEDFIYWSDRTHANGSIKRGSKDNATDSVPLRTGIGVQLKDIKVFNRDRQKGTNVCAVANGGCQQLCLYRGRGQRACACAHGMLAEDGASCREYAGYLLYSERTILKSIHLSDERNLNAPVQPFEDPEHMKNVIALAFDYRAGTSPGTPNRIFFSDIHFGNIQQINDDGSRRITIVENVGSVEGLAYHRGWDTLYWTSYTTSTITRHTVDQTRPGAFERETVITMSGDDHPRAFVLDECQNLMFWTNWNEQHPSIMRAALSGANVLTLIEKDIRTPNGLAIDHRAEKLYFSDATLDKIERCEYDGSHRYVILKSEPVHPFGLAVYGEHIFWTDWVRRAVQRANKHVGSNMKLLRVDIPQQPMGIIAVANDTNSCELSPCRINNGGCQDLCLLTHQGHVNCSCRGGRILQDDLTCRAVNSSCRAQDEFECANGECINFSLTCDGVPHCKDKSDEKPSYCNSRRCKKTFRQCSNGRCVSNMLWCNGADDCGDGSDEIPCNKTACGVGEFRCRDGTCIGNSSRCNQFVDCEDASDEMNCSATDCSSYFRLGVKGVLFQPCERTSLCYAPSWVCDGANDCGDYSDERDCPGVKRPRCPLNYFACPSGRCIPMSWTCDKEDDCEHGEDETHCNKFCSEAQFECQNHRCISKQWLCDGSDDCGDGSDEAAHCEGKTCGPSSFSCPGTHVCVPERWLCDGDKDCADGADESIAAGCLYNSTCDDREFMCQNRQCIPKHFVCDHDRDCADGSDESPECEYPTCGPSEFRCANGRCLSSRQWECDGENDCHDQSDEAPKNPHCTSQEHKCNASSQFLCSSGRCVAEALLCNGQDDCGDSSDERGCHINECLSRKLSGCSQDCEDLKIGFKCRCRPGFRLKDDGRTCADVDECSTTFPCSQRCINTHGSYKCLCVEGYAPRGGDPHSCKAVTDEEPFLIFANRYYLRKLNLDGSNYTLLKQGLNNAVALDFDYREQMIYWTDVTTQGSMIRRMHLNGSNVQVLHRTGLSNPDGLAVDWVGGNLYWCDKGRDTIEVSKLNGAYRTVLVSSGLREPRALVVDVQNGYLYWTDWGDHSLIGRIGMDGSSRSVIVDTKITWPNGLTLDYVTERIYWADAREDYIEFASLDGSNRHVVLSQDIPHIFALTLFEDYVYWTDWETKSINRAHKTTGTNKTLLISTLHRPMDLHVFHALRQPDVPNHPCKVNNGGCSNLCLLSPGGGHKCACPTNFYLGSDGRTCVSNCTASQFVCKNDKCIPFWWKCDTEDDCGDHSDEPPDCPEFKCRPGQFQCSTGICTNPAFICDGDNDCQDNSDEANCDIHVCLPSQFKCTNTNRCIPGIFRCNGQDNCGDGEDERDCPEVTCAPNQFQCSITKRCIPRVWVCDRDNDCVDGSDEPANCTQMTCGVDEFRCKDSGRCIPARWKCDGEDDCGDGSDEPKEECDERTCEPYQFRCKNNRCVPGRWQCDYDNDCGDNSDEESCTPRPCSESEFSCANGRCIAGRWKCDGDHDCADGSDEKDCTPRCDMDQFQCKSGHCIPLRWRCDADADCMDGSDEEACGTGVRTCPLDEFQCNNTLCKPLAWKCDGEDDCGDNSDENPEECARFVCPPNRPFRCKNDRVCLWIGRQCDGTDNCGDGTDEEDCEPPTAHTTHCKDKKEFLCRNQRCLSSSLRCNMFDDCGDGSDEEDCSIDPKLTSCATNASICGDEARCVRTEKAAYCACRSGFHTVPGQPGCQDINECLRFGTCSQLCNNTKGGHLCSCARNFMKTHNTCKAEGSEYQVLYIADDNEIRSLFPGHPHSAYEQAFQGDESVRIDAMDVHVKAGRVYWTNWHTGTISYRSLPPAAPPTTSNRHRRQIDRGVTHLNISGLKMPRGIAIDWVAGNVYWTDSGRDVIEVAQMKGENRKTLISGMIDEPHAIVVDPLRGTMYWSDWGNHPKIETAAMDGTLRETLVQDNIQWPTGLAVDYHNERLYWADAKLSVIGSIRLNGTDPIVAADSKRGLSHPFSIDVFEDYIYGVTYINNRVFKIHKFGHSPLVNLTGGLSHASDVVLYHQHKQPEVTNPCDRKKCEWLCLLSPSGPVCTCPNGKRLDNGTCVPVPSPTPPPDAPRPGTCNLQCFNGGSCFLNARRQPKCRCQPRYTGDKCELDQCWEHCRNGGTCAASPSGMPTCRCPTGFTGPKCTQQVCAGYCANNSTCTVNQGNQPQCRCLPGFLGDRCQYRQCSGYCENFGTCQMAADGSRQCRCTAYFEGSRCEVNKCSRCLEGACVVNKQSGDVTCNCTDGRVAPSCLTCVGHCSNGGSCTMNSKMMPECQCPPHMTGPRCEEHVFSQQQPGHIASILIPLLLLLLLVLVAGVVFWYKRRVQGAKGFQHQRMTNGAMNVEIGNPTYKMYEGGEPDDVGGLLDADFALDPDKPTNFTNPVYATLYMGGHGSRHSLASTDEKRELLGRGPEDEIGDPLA
UniProt P08138, residues 29-427: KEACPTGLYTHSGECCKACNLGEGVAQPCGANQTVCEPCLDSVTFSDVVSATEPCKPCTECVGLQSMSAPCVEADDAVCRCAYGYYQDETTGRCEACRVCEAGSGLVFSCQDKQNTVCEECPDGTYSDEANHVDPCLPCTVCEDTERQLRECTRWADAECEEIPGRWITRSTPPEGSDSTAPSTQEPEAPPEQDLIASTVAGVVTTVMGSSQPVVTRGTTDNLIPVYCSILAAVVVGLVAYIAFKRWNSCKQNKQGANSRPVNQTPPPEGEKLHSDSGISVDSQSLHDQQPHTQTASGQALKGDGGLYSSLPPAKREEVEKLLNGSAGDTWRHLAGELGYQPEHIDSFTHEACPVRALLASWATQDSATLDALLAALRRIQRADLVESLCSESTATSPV
UniProt O75787, residues 17-350: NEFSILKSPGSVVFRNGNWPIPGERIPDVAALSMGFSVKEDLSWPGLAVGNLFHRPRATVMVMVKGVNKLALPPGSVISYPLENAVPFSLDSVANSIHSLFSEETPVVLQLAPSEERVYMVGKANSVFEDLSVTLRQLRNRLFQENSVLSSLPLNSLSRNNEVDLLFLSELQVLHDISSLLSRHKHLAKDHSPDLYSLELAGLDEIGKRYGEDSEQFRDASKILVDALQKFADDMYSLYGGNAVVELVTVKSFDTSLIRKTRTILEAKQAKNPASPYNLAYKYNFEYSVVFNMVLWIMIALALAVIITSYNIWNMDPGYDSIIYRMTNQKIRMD

Sequences and labels used below:
T1: Human PRELP (proline and arginine-rich end leucine-rich repeat protein) with a C-terminal FLAG tag, overexpressed in Expi293 cells (human) (UniProt P51888)
T1 sequence: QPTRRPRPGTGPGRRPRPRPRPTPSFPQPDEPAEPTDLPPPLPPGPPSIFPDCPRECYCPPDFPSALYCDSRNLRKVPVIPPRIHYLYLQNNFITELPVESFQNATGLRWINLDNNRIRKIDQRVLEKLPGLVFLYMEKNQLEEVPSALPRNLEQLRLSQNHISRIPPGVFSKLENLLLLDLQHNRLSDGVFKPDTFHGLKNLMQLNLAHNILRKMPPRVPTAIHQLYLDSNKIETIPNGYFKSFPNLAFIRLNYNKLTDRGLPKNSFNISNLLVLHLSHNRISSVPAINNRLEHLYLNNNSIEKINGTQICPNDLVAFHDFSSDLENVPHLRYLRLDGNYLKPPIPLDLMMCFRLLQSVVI

B1: Protocadherin-20 (protein, UniProt Q8N6Y1 61-951)
chain: SYSRATELLYSLNEGLPAGVLIGSLAEDLRLLPRSAGRPDPQSQLPERTGAEWNPPLSFSLASRGLSGQYVTLDNRSGELHTSAQEIDREALCVEGGGGTAWSGSVSISSSPSDSCLLLLDVLVLPQEYFRFVKVKIAIRDINDNAPQFPVSQISVWVPENAPVNTRLAIEHPAVDPDVGINGVQTYRLLDYHGMFTLDVEENENGERTPYLIVMGALDRETQDQYVSIIIAEDGGSPPLLGSATLTIGISDINDNCPLFTDSQINVTVYGNATVGTPIAAVQAVDKDLGTNAQITYSYSQKVPQASKDLFHLDENTGVIKLFSKIGGSVLESHKLTILANGPGCIPAVITALVSIIKVIFRPPEIVPRYIANEIDGVVYLKELEPVNTPIAFFTIRDPEGKYKVNCYLDGEGPFRLSPYKPYNNEYLLETTKPMDYELQQFYEVAVVAWNSEGFHVKRVIKVQLLDDNDNAPIFLQPLIELTIEENNSPNAFLTKLYATDADSEERGQVSYFLGPDAPSYFSLDSVTGILTVSTQLDREEKEKYRYTVRAVDCGKPPRESVATVALTVLDKNDNSPRFINKDFSFFVPENFPGYGEIGVISVTDADAGRNGWVALSVVNQSDIFVIDTGKGMLRAKVSLDREQQSSYTLWVEAVDGGEPALSSTAKITILLLDINDNPPLVLFPQSNMSYLLVLPSTLPGSPVTEVYAVDKDTGMNAVIAYSIIGRRGPRPESFRIDPKTGNITLEEALLQTDYGLHRLLVKVSDHGYPEPLHSTVMVNLFVNDTVSNESYIESLLRKEPEINIEEKEPQISIEPTHRKVESVSCMPTLVALSVISLGSITLVTGMGIYICLRKGEKHPREDENLEVQIPLKGKIDLHMRERKPMDISNI
B2: Metal transporter CNNM4 (protein, UniProt Q6P4Q7 1-775)
chain: MAPVGGGGRPVGGPARGRLLLAAPVLLVLLWALGARGQGSPQQGTIVGMRLASCNKSCGTNPDGIIFVSEGSTVNLRLYGYSLGNISSNLISFTEVDDAETLHKSTSCLELTKDLVVQQLVNVSRGNTSGVLVVLTKFLRRSESMKLYALCTRAQPDGPWLKWTDKDSLLFMVEEPGRFLPLWLHILLITVLLVLSGIFSGLNLGLMALDPMELRIVQNCGTEKERRYARKIEPIRRKGNYLLCSLLLGNVLVNTSLTILLDNLIGSGLMAVASSTIGIVIFGEILPQALCSRHGLAVGANTILLTKFFMLLTFPLSFPISKLLDFFLGQEIRTVYNREKLMEMLKVTEPYNDLVKEELNMIQGALELRTKTVEDIMTQLQDCFMIRSDAILDFNTMSEIMESGYTRIPVFEDEQSNIVDILYVKDLAFVDPDDCTPLKTITRFYNHPVHFVFHDTKLDAMLEEFKKGKSHLAIVQKVNNEGEGDPFYEVLGLVTLEDVIEEIIKSEILDESDMYTDNRSRKRVSEKNKRDFSAFKDADNELKVKISPQLLLAAHRFLATEVSQFSPSLISEKILLRLLKYPDVIQELKFDEHNKYYARHYLYTRNKPADYFILILQGKVEVEAGKENMKFETGAFSYYGTMALTSVPSDRSPAHPTPLSRSASLSYPDRTDVSTAATLAGSSNQFGSSVLGQYISDFSVRALVDLQYIKITRQQYQNGLLASRMENSPQFPIDGCTTHMENLAEKSELPVVDETTTLLNERNSLLHKASHENAI
B3: Neutral amino acid transporter B(0) (protein, UniProt Q15758 1-541)
chain: MVADPPRDSKGLAAAEPTANGGLALASIEDQGAAAGGYCGSRDQVRRCLRANLLVLLTVVAVVAGVALGLGVSGAGGALALGPERLSAFVFPGELLLRLLRMIILPLVVCSLIGGAASLDPGALGRLGAWALLFFLVTTLLASALGVGLALALQPGAASAAINASVGAAGSAENAPSKEVLDSFLDLARNIFPSNLVSAAFRSYSTTYEERNITGTRVKVPVGQEVEGMNILGLVVFAIVFGVALRKLGPEGELLIRFFNSFNEATMVLVSWIMWYAPVGIMFLVAGKIVEMEDVGLLFARLGKYILCCLLGHAIHGLLVLPLIYFLFTRKNPYRFLWGIVTPLATAFGTSSSSATLPLMMKCVEENNGVAKHISRFILPIGATVNMDGAALFQCVAAVFIAQLSQQSLDFVKIITILVTATASSVGAAGIPAGGVLTLAIILEAVNLPVDHISLILAVDWLVDRSCTVLNVEGDALGAGLLQNYVDRTESRSTEPELIQVKSELPLDPLPVPTEEGNPLLKHYRGPAGDATVASEKESVM
B4: Calsyntenin-3 (protein, UniProt Q9BQT9 20-956)
chain: NKANKHKPWIEAEYQGIVMENDNTVLLNPPLFALDKDAPLRYAGEICGFRLHGSGVPFEAVILDKATGEGLIRAKEPVDCEAQKEHTFTIQAYDCGEGPDGANTKKSHKATVHVRVNDVNEFAPVFVERLYRAAVTEGKLYDRILRVEAIDGDCSPQYSQICYYEILTPNTPFLIDNDGNIENTEKLQYSGERLYKFTVTAYDCGKKRAADDAEVEIQVKPTCKPSWQGWNKRIEYAPGAGSLALFPGIRLETCDEPLWNIQATIELQTSHVAKGCDRDNYSERALRKLCGAATGEVDLLPMPGPNANWTAGLSVHYSQDSSLIYWFNGTQAVQVPLGGPSGLGSGPQDSLSDHFTLSFWMKHGVTPNKGKKEEETIVCNTVQNEDGFSHYSLTVHGCRIAFLYWPLLESARPVKFLWKLEQVCDDEWHHYALNLEFPTVTLYTDGISFDPALIHDNGLIHPPRREPALMIGACWTEEKNKEKEKGDNSTDTTQGDPLSIHHYFHGYLAGFSVRSGRLESREVIECLYACREGLDYRDFESLGKGMKVHVNPSQSLLTLEGDDVETFNHALQHVAYMNTLRFATPGVRPLRLTTAVKCFSEESCVSIPEVEGYVVVLQPDAPQILLSGTAHFARPAVDFEGTNGVPLFPDLQITCSISHQVEAKKDESWQGTVTDTRMSDEIVHNLDGCEISLVGDDLDPERESLLLDTTSLQQRGLELTNTSAYLTIAGVESITVYEEILRQARYRLRHGAALYTRKFRLSCSEMNGRYSSNEFIVEVNVLHSMNRVAHPSHVLSSQQFLHRGHQPPPEMAGHSLASSHRNSMIPSAATLIIVVCVGFLVLMVVLGLVRIHSLHRRVSGAGGPPGASSDPKDPDLFWDDSALTIIVNPMESYQNRQSCVTGAVGGQQEDEDSSDSEVADSPSSDERRIIETPPHRY
B5: Calsyntenin-1 (protein, UniProt O94985 29-981)
chain: ARVNKHKPWLEPTYHGIVTENDNTVLLDPPLIALDKDAPLRFAESFEVTVTKEGEICGFKIHGQNVPFDAVVVDKSTGEGVIRSKEKLDCELQKDYSFTIQAYDCGKGPDGTNVKKSHKATVHIQVNDVNEYAPVFKEKSYKATVIEGKQYDSILRVEAVDADCSPQFSQICSYEIITPDVPFTVDKDGYIKNTEKLNYGKEHQYKLTVTAYDCGKKRATEDVLVKISIKPTCTPGWQGWNNRIEYEPGTGALAVFPNIHLETCDEPVASVQATVELETSHIGKGCDRDTYSEKSLHRLCGAAAGTAELLPSPSGSLNWTMGLPTDNGHDSDQVFEFNGTQAVRIPDGVVSVSPKEPFTISVWMRHGPFGRKKETILCSSDKTDMNRHHYSLYVHGCRLIFLFRQDPSEEKKYRPAEFHWKLNQVCDEEWHHYVLNVEFPSVTLYVDGTSHEPFSVTEDYPLHPSKIETQLVVGACWQEFSGVENDNETEPVTVASAGGDLHMTQFFRGNLAGLTLRSGKLADKKVIDCLYTCKEGLDLQVLEDSGRGVQIQAHPSQLVLTLEGEDLGELDKAMQHISYLNSRQFPTPGIRRLKITSTIKCFNEATCISVPPVDGYVMVLQPEEPKISLSGVHHFARAASEFESSEGVFLFPELRIISTITREVEPEGDGAEDPTVQESLVSEEIVHDLDTCEVTVEGEELNHEQESLEVDMARLQQKGIEVSSSELGMTFTGVDTMASYEEVLHLLRYRNWHARSLLDRKFKLICSELNGRYISNEFKVEVNVIHTANPMEHANHMAAQPQFVHPEHRSFVDLSGHNLANPHPFAVVPSTATVVIVVCVSFLVFMIILGVFRIRAAHRRTMRDQDTGKENEMDWDDSALTITVNPMETYEDQHSSEEEEEEEEEEESEDGEEEDDITSAESESSEEEEGEQGDPQNATRQQQLEWDDSTLSY

Results are given in words; binding and its absence hold for the method and conditions named. Binding seen in cells or lysates may run through a third protein. A yes stands for co-enrichment or nearness to the bait. Other partners may have been found. Sequences can lack the tags named with a protein.

In the test the target is T1, Human PRELP (proline and arginine-rich end leucine-rich repeat protein) with a C-terminal FLAG tag, overexpressed in Expi293 cells (human). As to the kind of experiment: affinity purification with mass spectrometry; CoIP-MS: DDM extract (0.1% DDM, PBS pH 7.4) of the membrane fraction of Expi293 cells expressing PRELP-FLAG, captured on DDDDK-tagged Protein Purification Gel overnight at 4 °C, eluted with FLAG peptide; S-Trap digestion, LC-MS/MS; compared with control-transfected cells.
On to “Proprotein convertase subtilisin/kexin type 5 (from UniProt Q92824 115-1860) (enzyme)”, for which the binding entry is given as “binds”.

As to “Desmoglein-2 (from UniProt Q14126 50-1118)”, the binding result was “binds”.

Consider “FRAS1-related extracellular matrix protein 2 (from UniProt Q5SZK8 47-3169)”, for which the binding entry is “binds”.

As for “Plasma membrane calcium-transporting ATPase 1 (from UniProt P20020 1-1220)”, the binding entry is on record as “binds”.

For the molecule “Cadherin EGF LAG seven-pass G-type receptor 2 (from UniProt Q9HCU4 32-2923)”, the binding result is given as “binds”.

Regarding “Signal transducer and activator of transcription 1-alpha/beta (from UniProt P42224 1-750)”, the binding result is on record as “binds”.

As to “Prolow-density lipoprotein receptor-related protein 1 (from UniProt Q07954 20-4544)”, the binding result is on record as “binds”.

For “Chondroitin sulfate proteoglycan 4 (from UniProt Q6UVK1 30-2322)”, the binding entry was “binds”.

On to “Low-affinity nerve growth factor receptor p75NTR (from UniProt P08138 29-427)”, for which the binding result is given as “binds”.

For the molecule “Insulin-like growth factor 1 receptor (from UniProt P08069 31-1367)”, the binding result is reported as “binds”.

In the case of “Catenin beta-1 (from UniProt P35222 1-781)”, the binding entry is on record as “binds”.

With “Extracellular matrix protein FRAS1 (from UniProt Q86XX4 27-4008)”, the binding entry is “binds”.

For “CD97 antigen (from UniProt P48960 21-835) (receptor)”, the binding entry is “binds”.

Regarding “Integral membrane protein 2B (from UniProt Q9Y287 1-266)”, the binding entry was “binds”.

In the case of “Renin receptor (from UniProt O75787 17-350)”, the binding entry is given as “binds”.

As to “Protocadherin Fat 1 (from UniProt Q14517 22-4588)”, the binding result is “binds”.

B1: the binding result is “binds”.

In the case of B2, the binding entry is listed as “binds”.

Consider B3, for which the binding entry is on record as “binds”.

With B4, the binding entry is on record as “binds”.

As to B5, the binding result is given as “binds”.
